Laboratory results: PubChem BioAssay AID686943 (Drosophila RNAi Screening Center, 2013)
In all, the deposit lists about 23,000 reagents; this is a random part of those with a known target gene and a result. 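Extra replicates exist only for a retested subset of genes; insulin dose and duration not given; both raised and lowered dpERK matter.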 The numbers tell different reagents against one gene apart. Names joined by + are all predicted targets of the reagent. The record does not give: the amount of reagent, the time to read-out.

Test: 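Fly genes whose loss alters ERK activation after insulin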 (primary screen)
Cell system: Drosophila S2R+ haemocyte-like cells expressing YFP-tagged ERK (Rolled)
Reagent: long dsRNA against Drosophila genes
Challenge: insulin stimulation versus unstimulated cells; dose and duration not given
Detection: 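Per-plate z-scores of phospho-ERK immunostaining normalised to YFP-tagged ERK, measured with and without insulin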
Direction: replicate 1, z-score of dpERK with insulin and replicate 2, z-score of dpERK with insulin: higher = more active ERK per ERK-YFP after insulin; replicate 1, z-score of dpERK under basal conditions: higher = more basal active ERK per ERK-YFP; replicate 1, z-score of ERK-YFP with insulin: higher = more YFP-tagged ERK signal

predicted target	dsRNA no.	replicate 1, z-score of dpERK with insulin	replicate 2, z-score of dpERK with insulin	replicate 1, z-score of dpERK under basal conditions	replicate 1, z-score of ERK-YFP with insulin
glu (GeneID 35001)	1	-0.07	0.67	1.92	0.6
CG5188 (GeneID 34428)	1	-0.06	0.31	0.25	-0.99
Cand1 (GeneID 34403)	1	0.23	1.16	2.06	-0.55
CG42703 (GeneID 10178828)	1	0.58	1.47		1.61
cold (GeneID 33237)	1	-0.9	-0.39	0.94	0.67
CG15888 (GeneID 41630)	1	-0.61	0.38	0.94	0.45
Rrp4 (GeneID 37731)	1	0.44	0.32	0.77	-0.37
CG17991 (GeneID 43279)	1	-0.2	0.17	-1.23	0.34
alien (GeneID 34225)	1	-0.91	0.51	-0.84	-0.13
Or19a (GeneID 59214)	1	-0.04	0.07	1.15	0.02
Sodh2 (GeneID 41313)	1	-0.02	0.03	-0.62	0.09
HtrA2 (GeneID 41756)	1	0.16	0.59	0.39	-0.31
Erasp (GeneID 246448)	1	0.38	-0.82	0.91	0.78
CG32462 + asRNA:CR43426	1	0.46	-0.61	-0.59	0.26
Prosbeta2R2 (GeneID 40621)	1	-1.08	-0.4	-0.22	0.69
OtopLb (GeneID 33539)	1	-2.22	-2.19	-0.42	-1.27
CG31100 (GeneID 41075)	1	0.13	-0.19	-0.66	0.82
CG31100 (GeneID 41075)	2	0.14	-0.5	0.77	-0.71
CG13748 (GeneID 35896)	1	-0.26	0.08	0.98	0.09
CG7860 (GeneID 32488)	1	-0.27	0.22	-0.42	0.17
sgl (GeneID 38760)	1	1.5	-0.02	-0.42	-2.38
CG32313 (GeneID 317973)	1	0.37	-0.27	-1.86	-0.11
Ugt36A1 (GeneID 44058)	1	0.47	0.45	-0.45	1.15

Copied from the list.
Entry of glu (GeneID 35001) under “replicate 1, z-score of dpERK under basal conditions”: 1.92
CG31100 (GeneID 41075) #2, replicate 1, z-score of ERK-YFP with insulin = -0.71
Under “replicate 2, z-score of dpERK with insulin”, Ugt36A1 (GeneID 44058) reads 0.45
